Results are given in words; binding and its absence hold for the method and conditions named. Binding seen in cells or lysates may run through a third protein. Some binding calls cover weakened binding; strength is not graded here. For part of these data: Where a sequence is shown, tags or fusion partners need not be part of it. Each block holds one binder with its values, some of them ahead of it.
Legend:
[1] = biological target: recombinant full-length APP695 (pCMV-APP) (human) (UniProt P05067); test: pulldown of APP695 on immobilized Ig-F spondin truncations
[2] = biological target: recombinant full-length APP695 (pCMV-APP) (human) (UniProt P05067); test: pulldown from transfected COS cell lysate with immobilized full-length Ig-F spondin, immunoblot with C-terminal antibodies
[3] = biological target: recombinant full-length APP695 (pCMV-APP) (human) (UniProt P05067); test: pulldown of APP695 solubilized from transfected COS cells on immobilized Ig-F spondin, immunoblot
[4] = biological target: GST-CAPPD fusion protein (pGEX-CAPPD, APP695 residues 286-557) (human) (UniProt P05067); test: pulldown of secreted myc-F-spondin on immobilized GST-CAPPD, immunoblot

B2: Ig-F spondin.2 (pCMVIg-F spondin.2, residues 1-501) (Fc fusion, not shown: a dimerising Fc or GST)
chain: FSDETLDKVPKSEGYCSRILRAQGTRREGYTEFSLRVEGDPDFYKPGTSYRVTLSAAPPSYFRGFTLIALRENREGDKEEDHAGTFQIIDEEETQFMSNCPVAVTESTPRRRTRIQVFWIAPPAGTGCVILKASIVQKRIIYFQDEGSLTKKLCEQDSTFDGVTDKPILDCCACGTAKYRLTFYGNWSEKTHPKDYPRRANHWSAIIGGSHSKNYVLWEYGGYASEGVKQVAELGSPVKMEEEIRQQSDEVLTVIKAKAQWPAWQPLNVRAAPSAEFSVDRTRHLMSFLTMMGPSPDWNVGLSAEDLCTKECGWVQKVVQDLIPWDAGTDSGVTYESPNKPTIPQEKIRPLTSLDHPQSPFYDPEGGSITQVARVVIERIARKGEQCNIVPDNVDDIVADLAPEEKDEDDTPETCIYSNWSPWSACSSSTCDKGKRMRQRMLKAQLDLSVPCPDTQDFQPCMGPGCSDEDGPT
binding [1]: binds

B3: Ig-F spondin.1 (pCMVIg-F spondin.1, residues 1-807, full-length) (Fc fusion, not shown: a dimerising Fc or GST)
chain: FSDETLDKVPKSEGYCSRILRAQGTRREGYTEFSLRVEGDPDFYKPGTSYRVTLSAAPPSYFRGFTLIALRENREGDKEEDHAGTFQIIDEEETQFMSNCPVAVTESTPRRRTRIQVFWIAPPAGTGCVILKASIVQKRIIYFQDEGSLTKKLCEQDSTFDGVTDKPILDCCACGTAKYRLTFYGNWSEKTHPKDYPRRANHWSAIIGGSHSKNYVLWEYGGYASEGVKQVAELGSPVKMEEEIRQQSDEVLTVIKAKAQWPAWQPLNVRAAPSAEFSVDRTRHLMSFLTMMGPSPDWNVGLSAEDLCTKECGWVQKVVQDLIPWDAGTDSGVTYESPNKPTIPQEKIRPLTSLDHPQSPFYDPEGGSITQVARVVIERIARKGEQCNIVPDNVDDIVADLAPEEKDEDDTPETCIYSNWSPWSACSSSTCDKGKRMRQRMLKAQLDLSVPCPDTQDFQPCMGPGCSDEDGPTCTMSEWITWSPCSISCGMGMRSRERYVKQFPEDGSVCTLPTEETEKCTVNEECSPSSCLMTEWGEWDEYSATCGMGMKKRHRMIKMNPADGSMCKAETSQAEKRMMPECHTIPCLLSPWSEWSDCSVTCGKGMRTRQRMLKSLAELGDCNEDLEQVEKCMLPECPIDCELTEWSQWSECNKSCGKGHVIRTRMIQMEPQFGGAPCPETVQRKKCRIRKCLRNPSIQKLRWREARESRRSEQLKEESEGEQFPGCRMRPWTAWSECTKLCGGGIQERYMTVKKRFKSSQFTSCKDKKEIRACNVHPC
binding [2]: binds
binding [3]: binds

B5: Ig-F spondin.6 (pCMVIg-F spondin.6, residues 1-442) (Fc fusion, not shown: a dimerising Fc or GST)
chain: FSDETLDKVPKSEGYCSRILRAQGTRREGYTEFSLRVEGDPDFYKPGTSYRVTLSAAPPSYFRGFTLIALRENREGDKEEDHAGTFQIIDEEETQFMSNCPVAVTESTPRRRTRIQVFWIAPPAGTGCVILKASIVQKRIIYFQDEGSLTKKLCEQDSTFDGVTDKPILDCCACGTAKYRLTFYGNWSEKTHPKDYPRRANHWSAIIGGSHSKNYVLWEYGGYASEGVKQVAELGSPVKMEEEIRQQSDEVLTVIKAKAQWPAWQPLNVRAAPSAEFSVDRTRHLMSFLTMMGPSPDWNVGLSAEDLCTKECGWVQKVVQDLIPWDAGTDSGVTYESPNKPTIPQEKIRPLTSLDHPQSPFYDPEGGSITQVARVVIERIARKGEQCNIVPDNVDDIVADLAPEEKDEDDTPET
binding [1]: binds

Other lines, results leading:

binding [1]: binds
B1: Ig-F spondin.4 (pCMVIg-F spondin.4, residues 1-754) (Fc fusion, not shown: a dimerising Fc or GST)
chain: FSDETLDKVPKSEGYCSRILRAQGTRREGYTEFSLRVEGDPDFYKPGTSYRVTLSAAPPSYFRGFTLIALRENREGDKEEDHAGTFQIIDEEETQFMSNCPVAVTESTPRRRTRIQVFWIAPPAGTGCVILKASIVQKRIIYFQDEGSLTKKLCEQDSTFDGVTDKPILDCCACGTAKYRLTFYGNWSEKTHPKDYPRRANHWSAIIGGSHSKNYVLWEYGGYASEGVKQVAELGSPVKMEEEIRQQSDEVLTVIKAKAQWPAWQPLNVRAAPSAEFSVDRTRHLMSFLTMMGPSPDWNVGLSAEDLCTKECGWVQKVVQDLIPWDAGTDSGVTYESPNKPTIPQEKIRPLTSLDHPQSPFYDPEGGSITQVARVVIERIARKGEQCNIVPDNVDDIVADLAPEEKDEDDTPETCIYSNWSPWSACSSSTCDKGKRMRQRMLKAQLDLSVPCPDTQDFQPCMGPGCSDEDGPTCTMSEWITWSPCSISCGMGMRSRERYVKQFPEDGSVCTLPTEETEKCTVNEECSPSSCLMTEWGEWDEYSATCGMGMKKRHRMIKMNPADGSMCKAETSQAEKRMMPECHTIPCLLSPWSEWSDCSVTCGKGMRTRQRMLKSLAELGDCNEDLEQVEKCMLPECPIDCELTEWSQWSECNKSCGKGHVIRTRMIQMEPQFGGAPCPETVQRKKCRIRKCLRNPSIQKLRWREARESRRSEQLKEESEGEQFPG

binding [4]: binds
B4: myc-tagged full-length F-spondin (ligand, not shown: small tags and cut ends)
chain: B3 chain
